Laboratory results reported in patent publication EP0326196A2, “Aqueous pharmaceutical preparation” (AKZO N.V., priority 1988, dated 1989).

Test: Complex stability constant K calculated from the phase-solubility curve
Type: physicochemical
Experimental: The solubility studies were performed according to the method described below which is well known in the litrature. Excess amounts of the Steroid were added to aqueous solutions of 2,6-dimethyl-β-cyclodextrin. These suspensions were shaken at room temperature during 5 days followed by an equilibration period of 3 days at room temperature. Then an aliquot was centrifuged and the supernatant was filtered through a 0,45 µm membrane filter (Millipore: HV4, Millex). The samples were analysed with the Perkin Elmer Lambda 5 UV/VIS spectrophotometer. The absorbance was read and compared with a blanc and standard calibration curve. […] After calculation of the amount of Steroid dissolved, a phase-solubility diagram was constructed by plotting the dissolved amounts of Steroid as a function of the concentration of 2,6-dimethyl-β-cyclodextrin (see Graph).
From the curve obtained the complex stability constant K was calculated using the formula: [formula]
This complex-stability constant K is also a measure for the solubility of the Steroid in water. The higher this complex-stability constant, the better is the stability of the complex and the higher is the solubility in water.

CCC(=O)[C@@]1(C)[C@H](C)C[C@H]2[C@@H]3CCC4=CC(=O)C=C[C@]4(C)[C@H]3[C@@H](O)C[C@@]21C [Org 6216, 11β-hydroxy-16α,17α,21-trimethyl-▲¹ʼ⁴-pregnadiene-3,20-dione]
K (complex with 2,6-dimethyl-β-cyclodextrin): 58000 mL/mmol | K (complex with α-cyclodextrin): 380 ml.mmol.⁻¹ | K (complex with β-cylodextrin): 3400 ml.mmol.⁻¹ | K (complex with τ-cyclodextrin): 9600 ml.mmol.⁻¹
